In patent publication US6482836B1, “CRF antagonistic quino- and quinazolines” (priority 1997, dated 2002):
Some entries share one result that the patent states for a list of compounds.

Target: T1, human CRF receptors (Homo sapiens, UniProt P34998)
T1 construct: expressed in transfected cells; membrane suspension of stably transfected cells
T1 sequence (P34998 24-415): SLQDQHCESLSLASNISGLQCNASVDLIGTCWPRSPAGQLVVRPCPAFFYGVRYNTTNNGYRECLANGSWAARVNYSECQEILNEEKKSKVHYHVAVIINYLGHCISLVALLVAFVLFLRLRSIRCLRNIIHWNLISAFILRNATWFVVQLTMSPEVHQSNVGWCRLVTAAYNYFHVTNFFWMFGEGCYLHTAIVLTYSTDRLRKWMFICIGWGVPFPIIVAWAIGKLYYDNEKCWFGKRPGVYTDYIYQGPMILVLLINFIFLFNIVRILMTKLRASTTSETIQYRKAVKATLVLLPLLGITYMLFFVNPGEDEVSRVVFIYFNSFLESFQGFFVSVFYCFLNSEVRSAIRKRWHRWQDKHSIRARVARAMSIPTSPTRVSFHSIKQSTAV
Assay: CRF receptor binding activity (radioligand binding assay)
Conditions: displacement of [125I] tyrosine-ovine CRF (approximately 200 pM); cells stably transfected with human CRF receptors; 2 hours at 22° C.

Structure (SMILES) | Ki [µM]
CCCN(CC1CC1)c1cc(C)nc2c(-c3ccccc3)cccc12 [Compound 4] | ≤ 0.25
CCCN(CCC)c1cc(C)nc2c(-c3ccccc3Cl)c(C)ccc12 [Compound 11] | ≤ 0.25
